# Measured values published in PubChem BioAssay AID2685 (National Center for Advancing Translational Sciences (NCATS), 2010).
# The campaign covered roughly 320,000 compounds. About 2,100 (0.66%) were called active. Inconclusive means that the source gave no clear call. Such entries were picked first, then a sample of the others. Calls follow the shape of the dose curve; as a rule, active = well fitted inhibition curve with a large enough effect in the signal ratio, with a control signal flat (not every such curve was filed as active); inconclusive = small, poorly fitted or top-dose-only effect, or effect the other way, or a change in a side signal; inactive = flat fitted curve, though single readings scatter; the % refers to the signal ratio. Potencies beside an inconclusive call are fits to weak or partial responses and may not hold up.
# Test: qHTS Assay for Lipid Storage Modulators in Drosophila S3 Cells
# Details: BODIPY lipid droplet fluorescence, 18-24 h, cells fed with added oleic acid; lipid storage change, negative = inhibition: at 46.1 µM (top of the series) unless noted
# Outline: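 Laser-scanning cytometry quantifies lipid droplet accumulation (500–530 nm total intensity; droplet/cell object ratio) in oleic acid-fed (400 uM added) Drosophila S3 cells treated with a concentration series. 20 uM Triacsin C defined 100% inhibition.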
# % is scaled to controls: 0 for no effect and ±100 for the full control effect; potency is read from the fitted curve at half-maximal effect.
SMILES,"lipid storage change, negative = inhibition",Potency
CCCCn1c(N)c(N(CC)C(=O)c2ccc(Cl)c([N+](=O)[O-])c2)c(=O)[nH]c1=O,inconclusive: 2.42%,–
Cc1ccccc1NS(=O)(=O)c1nnc(NC(=O)c2ccc(Br)cc2)s1,inconclusive: -8.59%,–
CCC1CCCCN1C(=O)c1cc2cc(Br)ccc2oc1=O (configuration not stated),inconclusive: 8.86% [at 9.22 µM],–
COc1ccc(NC(=O)Cc2nnc(SCC(=O)NC3=NCCS3)n2C)cc1,inconclusive: -91.9%,–
Cc1ccc([N+](=O)[O-])c(OCCCNCC(C)O)c1 (configuration not stated),inconclusive: 3.04%,–
O=C(NNC(=O)C1CCN(S(=O)(=O)c2ccc(Cl)cc2)CC1)c1ccc(S(=O)(=O)N2CCCCC2)cc1,–,"inconclusive: 9.2 µM [rising, partial curve]"
CN(c1ccccc1)S(=O)(=O)c1cccc(NC(=O)CCN2C(=O)C3CCCCC3C2=O)c1 (configuration not stated),inconclusive: 29.3%,–
CCN1CCN(c2ccc(S(=O)(=O)N3CCCCC3)cc2NC(=O)c2sccc2C)CC1,–,"inconclusive: 0.411 µM [falling, single point]"
CCOc1ccc(S(=O)(=O)N(C)c2ccc(OCC(=O)NCC3CCCO3)cc2)cc1 (configuration not stated),inconclusive: -5.7%,–
Fc1ccc(-c2nnc(N3CCOCC3)c3ccccc23)cc1F,–,"inconclusive: 13 µM [activator, partial curve]"
Cc1ccccc1C(=O)N1CCN(c2ncccn2)CC1,inconclusive: 28%,–
CCCCC(=O)Nc1ccc(NC(=O)c2ccc(C)c([N+](=O)[O-])c2)cc1OC,–,"inconclusive: 1.3 µM [activator, full curve, poor fit]"
Cc1cc(Cl)ccc1OCCCC(N)=O,inconclusive: 35.7%,–
CCOC(=O)c1cnn(-c2nc(CC)nc3sc4c(c23)CCC4)c1N,inconclusive: -41.7%,–
Cc1ccc(NC(=O)C(=O)Nc2ccccn2)cc1,inconclusive: 41.8%,–
NC(=O)CC(NC(=O)Cc1ccc(Cl)cc1)c1ccc(NCCN2CCOCC2)c([N+](=O)[O-])c1 (configuration not stated),–,"inconclusive: 29.1 µM [activator, single point]"
O=C1OC(c2ccc3c(c2)OCO3)=N/C1=C\c1ccc(C(=O)O)cc1,inconclusive: -3.41%,–
O=C(C1CC(=O)N(c2ccccc2)C1)N1CCN(c2ccccc2F)CC1 (configuration not stated),–,"inconclusive: 6.51 µM [activator, partial curve, poor fit]"
O=C(CSc1ccccn1)Nc1ccc(F)c([N+](=O)[O-])c1,inconclusive: 11.5%,–
CCCn1nc(NC(=O)c2ccncc2)c2cc3ccccc3nc21,–,"inconclusive: 0.651 µM [activator, full curve, poor fit]"
CC(Cl)C(=O)Nc1ccccc1C#N (configuration not stated),inconclusive: 10.3%,–
CCn1c2c(c3cc(Cl)ccc31)CCCC2=O,inconclusive: -7.62%,–
COc1ccc(S(=O)(=O)N2CCCCC2)cc1NS(=O)(=O)c1ccccc1F,inconclusive: -47.9%,–
CCc1ccc(S(=O)(=O)Nc2ccc(-c3ccc4nnc(C)n4n3)cc2)s1,–,"inconclusive: 0.82 µM [falling, full curve]"

# Some of the entries so far, bar-delimited.
SMILES | lipid storage change, negative = inhibition | Potency
CCCCn1c(N)c(N(CC)C(=O)c2ccc(Cl)c([N+](=O)[O-])c2)c(=O)[nH]c1=O | inconclusive: 2.42% | –
Cc1ccccc1NS(=O)(=O)c1nnc(NC(=O)c2ccc(Br)cc2)s1 | inconclusive: -8.59% | –

# The listing continues:

SMILES,"lipid storage change, negative = inhibition",Potency
COc1ccc(OC)c(C2CC(c3ccccc3)=NN2C(=S)Nc2ccccc2)c1 (configuration not stated),inconclusive: 28.7%,–
O=C(Oc1cccc(NC2=NS(=O)(=O)c3ccccc32)c1)c1ccncc1,inconclusive: -27.5% [at 9.22 µM],–
Cc1nc(Oc2ccc(S(=O)(=O)N3CCOCC3)cc2Cl)c2c3c(sc2n1)CCCC3,inconclusive: -50.7%,–
COc1ccccc1C1N(c2cc(Cl)ccc2OC)C(=O)C2CCCN21 (configuration not stated),inconclusive: -19.3% [at 9.22 µM],–
CCn1c(=O)c(C(=O)CN2CCN(Cc3ccc4c(c3)OCO4)CC2)c(N)n(Cc2ccccc2)c1=O,inconclusive: 9.82%,–
CCOC(=O)c1cccc(NC(=O)Nc2ccc3c(c2)C(=O)OC3)c1,–,"inconclusive: 8.2 µM [activator, partial curve]"
CCc1cc2c(COC(=O)c3cccc(S(C)(=O)=O)c3)cc(=O)oc2cc1O,inconclusive: 26.6%,–
CCCCCc1cc(=O)oc2c(C(CCN3CCCC3)c3cc(OC)c(OC)c(OC)c3)c(OC)cc(OC)c12 (configuration not stated),inconclusive: -21.3%,–
COc1ccc2ncc(S(=O)(=O)c3ccccc3)c(N3CCN(c4ccccc4)CC3)c2c1,–,"inconclusive: 6.51 µM [activator, single point]"
COc1cc([N+](=O)[O-])ccc1NC(=S)Nc1cccc(C(=O)O)c1,–,"inconclusive: 9.2 µM [activator, partial curve, poor fit]"
O=C(O)c1sc2cc(C(F)(F)F)cnc2c1-c1ccccc1,inconclusive: -17.6%,–
COCc1ccc(C(=O)N2CCCC(CCC(=O)NCc3ccccc3F)C2)o1 (configuration not stated),inconclusive: -29.3%,–
CC(=O)c1c(C)nc(-c2ccccc2)n1O,inconclusive: -1.12%,–
Cc1cc(C(F)(F)F)cc(NNC(=O)NC(=O)c2ccc(Cl)cc2)n1,inconclusive: -8.84%,–
CCN(CC)c1ccc(/C=N/NC(=O)CNC(=O)C2COc3ccccc3O2)c(O)c1 (configuration not stated),inconclusive: 22.8%,–
Cc1ccc(CN(C(=O)Cn2nnc3ccccc32)C(C(=O)NCc2ccco2)c2cccs2)cc1 (configuration not stated),inconclusive: 15.3%,–
C#CC(CO)N(CCN(Cc1ccccc1)C(C#C)CO)Cc1ccccc1 (configuration not stated),inconclusive: -22.7%,–
COc1cc(OC)cc(-n2nnnc2SCC(=O)Nc2ccc(C(C)=O)cc2)c1,–,"inconclusive: 0.58 µM [activator, single point]"
COc1cc([N+](=O)[O-])ccc1NC(=O)CC1SC(=Nc2ccc(F)cc2)N(CCC2=CCCCC2)C1=O (configuration not stated),–,active: 23.1 µM
Cc1ccc(CSc2ncnc3c2cnn3-c2ccc(C)cc2)cc1,inactive,–
Cc1ccc(C(=O)Oc2ccc([N+](=O)[O-])cc2)cc1S(=O)(=O)N1CCCCCC1,inconclusive: -28.9%,–
COc1cccc(-c2cc(C(=O)N3CCc4ccccc4C3)no2)c1,inconclusive: 36.9%,–
Cn1c(CNC(=O)c2ccccc2F)nnc1SCC(=O)NCc1ccccc1,–,"inconclusive: 0.13 µM [falling, full curve]"
